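Genome-wide siRNA knockdown in TC32 Ewing sarcoma cells, comparing luciferase light from an NR0B1-promoter reporter with a CMV-promoter reporter 48 hours after transfection. Each siRNA was applied at 20 nM. A z-score of the log NR0B1-over-CMV signal, less the median of siRNAs with the same seed; more negative means a stronger specific loss of the NR0B1 reporter.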

This is part of the screen; most of the strongest results are not listed here. Sequences are the guide (antisense) strand, without overhang.

strand: AAAUCUAUUAUACAGAAGG
gene: PRRG4
seed-corrected z-score: 0.1353

strand: UCUUCUACUAGGUUGUCUG
gene: FOPNL
seed-corrected z-score: -0.2203

strand: UCCAUGACACUGUUGAUCC
gene: MYO1G
seed-corrected z-score: -0.7958

strand: AUCCUCAAAAGUGAAGAAC
gene: DMRT1
seed-corrected z-score: 0.3894

strand: UCAGAGACGCAGACGAAGC
gene: MPPED1
seed-corrected z-score: 1.286

strand: AUACGUGAGCUCAUCAUCC
gene: STAB1
seed-corrected z-score: -1.512

strand: UAACGGUUUAUUUCAAUUU
gene: LOC644173
seed-corrected z-score: 2.186

strand: UGACGAAGAGCAUCCAGGC
gene: FAM132B
seed-corrected z-score: 0.7883

strand: UUAAUGAGCUUAUUGAGUG
gene: RMND5B
seed-corrected z-score: -0.03901

strand: UUAAGCUUUCCACUUGUUG
gene: HENMT1
seed-corrected z-score: 0.6762

strand: AUUAGAAAGAGUACCAGUG
gene: NQO2
seed-corrected z-score: -0.04376

strand: UGCUAUACCACACCAUGCC
gene: ASTN2
seed-corrected z-score: 0.9439

strand: AUCAUAGCGAUAGAUGUUG
gene: CCIN
seed-corrected z-score: -1.568

strand: AUUCUUCCCAUCAGAGUUC
gene: IGSF3
seed-corrected z-score: -1.062

strand: UACUCGCAGUUGUAGGUGC
gene: ART1
seed-corrected z-score: -0.6257

strand: UGUAAUCUGGGAUAUGAGC
gene: TMEM67
seed-corrected z-score: -0.4268

strand: UUUCUUACUCUUGAACCCG
gene: C9orf142
seed-corrected z-score: -0.09916

strand: UUUGUUGUCUGCAUCAACC
gene: EIF2D
seed-corrected z-score: 0.2057

strand: UAAAGACUAAGGGCUGUUC
gene: NRG2
seed-corrected z-score: -1.204

strand: UUCUUGGUCACGAAUCGGC
gene: MRPS15
seed-corrected z-score: -1.752

strand: UACCUAACCACGGACACUC
gene: BACH1
seed-corrected z-score: 0.2974

strand: UGCUGCUCGAGAUAUCUCC
gene: HYPK
seed-corrected z-score: 0.4133

strand: UUCUUCUCCACCGUUGACC
gene: LARP1BP3
seed-corrected z-score: 1.446

strand: UACUUGACCAAGGAGGUGU
gene: FAM101B
seed-corrected z-score: -0.1022

strand: UUGGUGAAGAGCCUCAUGC
gene: USP2
seed-corrected z-score: -0.1555

strand: AAUGUAGCCGUGGUCGUCC
gene: CRYAA
seed-corrected z-score: -0.01555

strand: AAUGUGGUAGCUAGGGUCC
gene: TM7SF3
seed-corrected z-score: -1.997

strand: UGUUUUGCCCUUGUUUUCU
gene: TCEAL4
seed-corrected z-score: 0.4213

strand: UUAUCUACGAAGUUACAGC
gene: MALRD1
seed-corrected z-score: -0.2578

strand: UGUAGUAUAAGCGCACUCC
gene: SMAD2
seed-corrected z-score: 0.7603

strand: UGAGAUCUUAGCAUGCAAC
gene: FAM98C
seed-corrected z-score: -0.03729

strand: AAAGGUGCAAGGAGGAUGG
gene: IL17B
seed-corrected z-score: -1.631

strand: UUCUUUCCCAUUCAGUUUC
gene: NOBOX
seed-corrected z-score: -0.8057

strand: AAGGGAACUAGAAAUACGG
gene: ZNF442
seed-corrected z-score: 0.2522

strand: UCCGUCACAAGUAAGAGAC
gene: ZMYND15
seed-corrected z-score: -0.2027

strand: UUGGUGUCAAUUAAGCAGG
gene: SCAP
seed-corrected z-score: 0.06534

Once more, the final 2:

- UCCGUCACAAGUAAGAGAC against ZMYND15 | seed-corrected z-score -0.2027
- UUGGUGUCAAUUAAGCAGG against SCAP | seed-corrected z-score 0.06534

Data taken from PubChem BioAssay AID1159506, deposited by NCATS (2015).